According to PubChem BioAssay AID493014 (National Center for Advancing Translational Sciences (NCATS), 2011):
Values joined by “and” are separate entries in the source; they are usually repeats but may differ in a detail not shown here. Equal entries are not always repeated. Among all 340,000 compounds or so, about 170 (0.05%) were called active. This list was built around the results that the source calls inconclusive (neither active nor inactive); the mix of calls is not that of the screen. Calls come from the whole dose curve; as a rule, active = well fitted inhibition curve with a large enough effect in the signal ratio, with a control signal flat (not every such curve was filed as active); inconclusive = small, poorly fitted or top-dose-only effect, or effect the other way, or a change in a side signal; inactive = flat fitted curve, though single readings scatter; the % refers to the signal ratio. A potency beside an inconclusive call is a rough fit, not a confirmed value.

experiment: qHTS Assay to Find Inhibitors of Chronic Active B-Cell Receptor Signaling; details: ABC-DLBCL IkBa-CBG/CBR reporter, luminescence ratio (green luciferase fused to IkBa over red control in TMD8 lymphoma cells), 4 h; activity change, negative = inhibition: at 46.1 µM (top of the series);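 for activity change, negative = inhibition: plate controls were basal doxycycline-induced cells for no effect and cells given 10 µM MG132 for full effect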
Summary of the method: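 Concentration-response series (up to 46 uM) were applied to TMD8 dual-reporter cells for 4 h at 37C with doxycycline. Green/red ratio, after filter-overlap correction, defined %Activity; red signal alone was normalised to basal cells and zero luminescence.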
Potency is the fitted concentration of half-maximal effect.

Compound	activity change, negative = inhibition	Potency
Cc1ccc(NC(=O)CN2C(=O)NC(C)(C3CC3)C2=O)c(C)c1 (stereo not given)	inconclusive: 4.34%	
CC(C)CNC(=S)NC(=O)c1ccc(Cl)cc1	inconclusive: 7.14%	
Clc1ccc(OCCCCSc2ncccn2)cc1	inconclusive: 25.4%	
COc1ccc(NS(=O)(=O)c2ccc(OCC(=O)N3CCOCC3)cc2)cc1	inactive: -0.194%	
O=C(COC(=O)c1cccnc1Nc1cccc(C(F)(F)F)c1)NCc1ccc2c(c1)OCO2	inconclusive: 5.62%	
Oc1ccc(-c2nccc(-c3ccc(Br)cc3)n2)cc1	inconclusive: 7.03%	
O=C(N/N=C/c1ccsc1)c1cc(-c2cccs2)nc2ccccc12	inconclusive: -7.84%	
O=C(Nc1ccc2c(c1)OCCO2)c1cccs1		inconclusive: 20.6 µM [falling, partial curve]
Cn1nc(-c2ccccc2)cc1NC(=O)Nc1ccc(C(C)(C)C)cc1	inactive: 2.39%	
COc1ccccc1C(=O)NCCC(=O)N(C)CC(=O)Nc1ccccc1Br	inconclusive: 3.67%	
Cc1cccc(Oc2sc(C(=O)c3ccccc3)c(N)c2C#N)c1C	inconclusive: 15.2%	
O=C1OCCN1C(=O)[C@H]1[C@H](c2ccc(F)cc2)C(c2ccccc2)=NN1c1ccc(Br)cc1	inconclusive: 8.62%	
COc1ccc(-n2c(COc3ccc4ccccc4c3)nnc2SCC(=O)NCc2ccco2)cc1		inconclusive: 32.6 µM [falling, partial curve, poor fit]
COc1cccc(NC(=O)CSc2ncc(S(=O)(=O)c3ccccc3)c(=O)[nH]2)c1	inconclusive: -1.95%	
Cc1cccc(CN2C(=O)N/C(=C/c3cc(C)n(-c4cc(C)ccn4)c3C)C2=O)c1	inconclusive: -3.89%	
COc1ccc(/C=C(/NC(=O)c2ccccc2)c2nc3ccc(Cl)cc3[nH]2)cc1OC	inactive: 5.37%	
O=C(c1ccc(COc2ccccc2Br)o1)N1CCN(c2ccccn2)CC1		inconclusive: 11.2 µM [falling, partial curve, poor fit]
COc1cccc(C(=O)Oc2cc(-c3ccccc3)no2)c1	inconclusive: 6.3%	
COc1ccccc1-c1cc(N)n[nH]1		inconclusive: 3.26 µM [falling, full curve]
O=C(CN1C(=O)C2C3CCC(C3)C2C1=O)OCC(=O)c1ccccc1 (stereo not given)	inconclusive: 1.86%	
CC(=O)c1ccsc1-c1c(C)cc2oc(=O)cc(-c3ccccc3)c2c1C	inconclusive: -1.09%	
c1ccc(-c2ccc(OCCCn3cncn3)cc2)cc1	inconclusive: 0.967%	
O=C(CNS(=O)(=O)c1ccc(Br)s1)NCc1ccc(F)cc1	inactive: -14%	
CC(C)c1ccc(NC(=O)Cc2cn(C)c3ccccc23)cc1	inconclusive: 16.3%	
CCc1cc(OCCCCNCc2ccccc2)ccc1Cl	inactive: -2.52%	
CCSc1ccc2c(c1)N(CCCN1CCN(C)CC1)c1ccccc1S2		inconclusive: 29.1 µM [falling, single point]
COC(=O)Nc1ccc2c(c1)N(C(=O)CCN(C)C)c1ccccc1CC2	inactive: -2.97%	

Compound	activity change, negative = inhibition	Potency
CCN(CC)c1ccc(Nc2nc(-c3cccnc3)cs2)cc1	inactive: -5.96%	
CCOc1ccc(S(=O)(=O)N(C)c2ccc(OCC(=O)Nc3nc(-c4cc(OC)ccc4OC)cs3)cc2)cc1	inconclusive: 7.19%	
COc1cc(Br)cc(-c2nc3c(c(=O)[nH]c(=O)n3Cc3ccccc3)n2C)c1O		inconclusive: 35.5 µM [falling, partial curve, poor fit]
CCN(CC)S(=O)(=O)c1ccc(-c2nnc(SCC(=O)N3CCc4ccccc43)o2)cc1	inconclusive: 5.58%	
O=C(CSc1nnc(-c2cccnc2)n1Cc1ccco1)N1c2ccccc2Sc2ccccc21	inconclusive: 16.1%	
Cc1ccc(S(=O)(=O)N2CCOCC2)cc1NC(=O)C(c1ccc(Cl)cc1)C(C)C (stereo not given)	inconclusive: -15.3%	
Cc1cc(NC(=O)CSCC(=O)OCC(=O)c2cccc(Br)c2)no1	inconclusive: -0.473%	
COc1cccc(-c2c(C(=O)N/N=C/c3ccoc3)nnn2-c2nonc2N)c1	inconclusive: -26.2%	
COc1ccc(S(=O)(=O)N(C)C)cc1NC(=O)CSc1nc(N)cc(N)n1	inconclusive: -0.185%	
Cc1nc(NCc2cccnc2)c2c3c(sc2n1)CC(C)CC3 (stereo not given)	inconclusive: -11.4%	
COc1ccc(-c2cc(-c3ccccc3)nc3ncnn23)cc1	inconclusive: -2.32%	
COc1ccccc1C(=O)NN=C1CCN(Cc2ccccc2)CC1	inconclusive: -6.56%	
COc1cccc(NC(=O)CN(C)C(=O)CSCC(=O)Nc2ccc(C)cc2)c1	inconclusive: -18.1%	
Cc1ccc(-c2csc3ncnc(Nc4ccc(C(=O)O)cc4)c23)cc1	inconclusive: -24.9%	
CSc1ccccc1C(=O)C1CCCN(Cc2c(C)n(C)n(-c3ccccc3)c2=O)C1 (stereo not given)	inactive: 5.79%	
CCCc1ccc2oc(C(=O)N3CCN(C4CCS(=O)(=O)C4)CC3)c(C)c2c1 (stereo not given)	inactive: -22.2%	
O=C(/C=C/c1cccs1)c1cc(Br)ccc1OC(=O)N1CCOCC1		inconclusive: 18.4 µM [falling, single point]
COC(=O)C1=C(C)N(Cc2ccccc2)C(=S)N[C@H]1c1ccccc1	inconclusive: 5.01% and inconclusive: 23.4%	
CCCCC(=O)Nc1ccc(NC(=O)c2ccc([N+](=O)[O-])cc2)cc1OC	inconclusive: 0.0714%	
COc1ccc(CC(NC(C)=O)C(=O)NC2CCN(C(=O)NCc3ccccc3)CC2)cc1 (stereo not given)	inconclusive: 1.94%	
COC(=O)Cn1c(=NC(=O)c2cc(-c3cccs3)nc3ccccc23)sc2cc(S(N)(=O)=O)ccc21		inconclusive: 25.9 µM [activator, single point]
CCOC(=O)c1[nH]c(C)c(C(=O)OCC(=O)N2CCc3ccccc32)c1C		inconclusive: 0.651 µM [falling, full curve, poor fit]
Cc1ccc(/C=c2\sc3n(c2=O)CN(c2ccc(Br)cc2)CN=3)o1	inconclusive: 6.42%	
COc1ccc(NC(=O)N(C)C[C@H]2Oc3c(NC(=O)Nc4ccccc4)cccc3C(=O)N([C@H](C)CO)C[C@@H]2C)cc1	inactive: -0.544%	
O=C(Nc1cccc2ccccc12)N1CCN(c2ccc(F)cc2)CC1		inconclusive: 2.31 µM [falling, full curve]
CN(C)c1cc(Nc2cccc(O)c2)c([N+](=O)[O-])c2nonc12	inconclusive: 8.98%	
COc1cc(-c2ccc3c(=O)c4ccccc4n(C)c3c2)cc(OC)c1OC		inconclusive: 35.5 µM [falling, single point]

Quoted from the listing.
Value of Cc1ccc(-c2csc3ncnc(Nc4ccc(C(=O)O)cc4)c23)cc1 under activity change, negative = inhibition: inconclusive: -24.9%
Value of COc1ccc(-n2c(COc3ccc4ccccc4c3)nnc2SCC(=O)NCc2ccco2)cc1 under Potency: inconclusive: 32.6 µM [falling, partial curve, poor fit]
Value of CCSc1ccc2c(c1)N(CCCN1CCN(C)CC1)c1ccccc1S2 under Potency: inconclusive: 29.1 µM [falling, single point]
Value of COc1ccc(NC(=O)N(C)C[C@H]2Oc3c(NC(=O)Nc4ccccc4)cccc3C(=O)N([C@H](C)CO)C[C@@H]2C)cc1 under activity change, negative = inhibition: inactive: -0.544%
Value of O=C(CNS(=O)(=O)c1ccc(Br)s1)NCc1ccc(F)cc1 under activity change, negative = inhibition: inactive: -14%

Further compounds.

Compound	activity change, negative = inhibition	Potency
COc1cccc(N2CC(NS(=O)(=O)c3ccc4ccccc4c3)CC2=O)c1 (stereo not given)		inconclusive: 29.1 µM [falling, single point]
O=C(Nc1ccccc1)C1CCN(S(=O)(=O)c2cccs2)CC1	inactive: 1.86%	
O=C(COC(=O)c1ccccc1C(=O)c1ccccc1)NCCc1ccc(Cl)cc1Cl		inconclusive: 29.1 µM [falling, single point]
N/C(=N\OC(=O)c1cccc(Br)c1)c1ccc(Br)cc1	inconclusive: 10.8%	
O=C(Nc1ccccc1)c1ccc(-c2ccccc2Cl)o1		inconclusive: 23.1 µM [falling, partial curve]
O=C(c1cn(-c2ccc(Cl)c(Cl)c2)nn1)C1CC1	inconclusive: 10.2%	
CCCCOc1ccc(C(=O)NCC(=O)NC2CC2)cc1	inconclusive: 9.23%	
O=C(c1ccccc1)c1ccc2c(c1)OCCCO2		inconclusive: 20 µM [falling, partial curve]
CN(CC(=O)Nc1cccc(F)c1)C(=O)c1ccc(COc2ccccc2)cc1	inconclusive: 0.0064%	
Fc1ccc(-c2nc(-c3cnccn3)no2)c(Cl)c1	inconclusive: 13.4%	
O=C(CSc1nc2ccc(Nc3nc(N4CCOCC4)nc(N4CCOCC4)n3)cc2s1)N1CCOCC1	inconclusive: -13.8%	
C/C(=N\NC(=O)c1nn(C)cc1Cl)c1ccncc1		inconclusive: 20.6 µM [falling, single point]
O=C(Nc1ccc(Cl)cc1)c1cc(S(=O)(=O)NC2CCCCCC2)ccc1F	inconclusive: 4.09%	
CCc1ccc(/C=N/NC(=O)c2nnn(-c3nonc3N)c2C(C)C)cc1	inactive: 0.823%	
Cc1cc(C(=O)CSc2ccc(F)cc2)cc(C)c1OC(=S)N(C)C	inconclusive: -18.3%	
CCOc1ccc(-c2cn(-c3ccccc3OC)c(=S)[nH]2)cc1	inactive: -11.1%	
CC(=O)c1ccc(OCc2cc(=O)n3ccsc3n2)cc1		inconclusive: 29.1 µM [falling, single point]
CN(C)c1nc(N)nc(CSc2nnnn2C)n1	inconclusive: -0.87%	
Cn1cccc1CNCc1ccccc1Cl	inconclusive: -19.9%	
Cn1nccc1C(=O)N1CCN(c2ccc(F)cc2)CC1	inconclusive: 6.07%	
C/C(=N\NC(=O)c1sccc1C)c1cccnc1		inconclusive: 31.6 µM [rising, single point]
CCOC(=O)C1CCCN(C(=O)CCc2nnc(-c3ccc(C(C)=O)s3)o2)C1 (stereo not given)	inactive: 4.18%	
NS(=O)(=O)c1ccc(NC(=O)COC(=O)CCCN2C(=O)c3cccc4cccc(c34)C2=O)cc1		inconclusive: 1.46 µM [rising, full curve, poor fit]
O=C(N/N=C/c1ccccc1[N+](=O)[O-])c1cnccn1		inconclusive: 35.5 µM [falling, single point]
C/C(=N\NC(=O)c1cc(-c2ccc(Br)s2)[nH]n1)c1ccncc1	inactive: -5.93%	
COc1ccc(OC)c(/C=C(\C#N)c2nc(-c3ccc(F)cc3)cs2)c1	inactive: -13.4%	
